Values from PubChem BioAssay AID1259405 (NCATS, 2018).
In all, the deposit lists about 50,000 reagents; this is an unselected part. Of all reagents, about 4,000 (8%) were called active. 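Mouse siRNA library applied to hamster cells; one well for each siRNA.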 Entries without a mark were called inactive. Reagents against one gene are numbered here. No sequences are given here.

- Aim: 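Knock-downs that lift recombinant protein yield in hamster ovary cells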 (primary screen)
- Cell system: Chinese hamster CHO-K1 ovary cells with stable secreted eGFP expression
- Reagents: single siRNA against mouse genes, 0.8 pmol siRNA per well (2 µl of 400 nM stock)
- Duration: 3 days
- Measurement: 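Per-well intracellular GFP measured by laser scanning cytometry, plus viability from ATP luminescence, each relative to plate median of non-targeting control wells, in %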
- Scale: GFP, % of control: higher = more GFP per well, higher productivity; viability (ATP), % of control: higher = more viable cells (more ATP)
- Call rule: 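a knock-down is called active if GFP reaches 120% or more of non-targeting control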

| gene knocked down | siRNA no. | GFP, % of control | viability (ATP), % of control |
| --- | --- | --- | --- |
| F7 | 1 | 113 | 62.1 |
| F7 | 2 | 97.2 | 67.8 |
| F7 | 3 | 98.2 | 63.2 |
| Man1a2 | 1 | 83.1 | 113 |
| Man1a2 | 2 | 103 | 109 |
| Man1a2 | 3 | 54.7 | 75.2 |
| Cts6 | 1 | 61 | 101 |
| Cts6 | 2 | 16.2 | 25.3 |
| Cts6 | 3 | 74 | 83.7 |
| Efr3a | 1 | 94.1 | 90.7 |
| Efr3a | 2 | 94.1 | 56.3 |
| Efr3a | 3 | 91.9 | 107 |
| Or5d14 | 1 | 102 | 79 |
| Or5d14 | 2 | 83 | 80.5 |
| Or5d14 | 3 | 89.1 | 72.3 |
| Ripk3 | 1 | 50.7 | 61.4 |
| Ripk3 | 2 | 109 | 83.3 |
| Prss59 | 1 | 76.3 | 31.5 |
| Prss59 | 2 | 42.3 | 32.4 |
| Prss59 | 3 | 70 | 85.7 |
| Poldip3 | 1 | 125 (active) | 94.1 |
| Poldip3 | 2 | 106 | 71.9 |
| Or10ak8 | 1 | 54.8 | 69 |
| Or10ak8 | 2 | 91.3 | 80.9 |
| Or10ak8 | 3 | 61.8 | 67.2 |
| Spata31g1 | 1 | 103 | 72.2 |
| Spata31g1 | 2 | 47 | 84.9 |
| Spata31g1 | 3 | 25 | 42.7 |
| Zswim1 | 1 | 110 | 95.4 |
| Zswim1 | 2 | 94.5 | 64.1 |
| Zswim1 | 3 | 96.2 | 109 |
| Krtap19-2 | 1 | 41.5 | 56.7 |
| Krtap19-2 | 2 | 90 | 69.1 |
| Krtap19-2 | 3 | 142 (active) | 73.5 |
| Guca2b | 1 | 40.2 | 53.5 |
| Guca2b | 2 | 83.5 | 68.3 |
| Mrps7 | 1 | 70 | 81.8 |
| Mrps7 | 2 | 63.5 | 60.1 |
| Mrps7 | 3 | 50.9 | 39.9 |
| Zcrb1 | 1 | 191 (active) | 122 |
| Zcrb1 | 2 | 88.1 | 73.4 |
| Zcrb1 | 3 | 70.9 | 45.6 |
| Grap2 | 1 | 95.7 | 116 |
| Grap2 | 2 | 154 (active) | 98.1 |
| Man1a | 1 | 122 (active) | 91.7 |
| Man1a | 2 | 93.1 | 82.9 |
| Man1a | 3 | 57.1 | 113 |
| Rgs13 | 1 | 114 | 98.4 |
| Rgs13 | 2 | 62.7 | 73.5 |
| Rgs13 | 3 | 34.5 | 44 |
| Sos1 | 1 | 79.8 | 96.5 |
| Sos1 | 2 | 74.6 | 76.6 |
| Sos1 | 3 | 72.3 | 94.8 |
| Acaa1b | 1 | 104 | 45.2 |
| Acaa1b | 2 | 68.9 | 85.5 |
| Acaa1b | 3 | 52.2 | 54.3 |
| Or4c116 | 1 | 92.4 | 90.8 |
| Or4c116 | 2 | 60.5 | 57.7 |
| Or4c116 | 3 | 61.1 | 89.6 |

An excerpt of the results above:
| gene knocked down | siRNA no. | GFP, % of control | viability (ATP), % of control |
| --- | --- | --- | --- |
| Poldip3 | 1 | 125 (active) | 94.1 |
| Poldip3 | 2 | 106 | 71.9 |
| Or10ak8 | 1 | 54.8 | 69 |
| Or10ak8 | 2 | 91.3 | 80.9 |
| Or10ak8 | 3 | 61.8 | 67.2 |
| Spata31g1 | 1 | 103 | 72.2 |
| Spata31g1 | 2 | 47 | 84.9 |
